# Measurements: paper PMC7407996
# Amino acid sequences for entries named in this document (tags omitted).
# UniProt Q01094: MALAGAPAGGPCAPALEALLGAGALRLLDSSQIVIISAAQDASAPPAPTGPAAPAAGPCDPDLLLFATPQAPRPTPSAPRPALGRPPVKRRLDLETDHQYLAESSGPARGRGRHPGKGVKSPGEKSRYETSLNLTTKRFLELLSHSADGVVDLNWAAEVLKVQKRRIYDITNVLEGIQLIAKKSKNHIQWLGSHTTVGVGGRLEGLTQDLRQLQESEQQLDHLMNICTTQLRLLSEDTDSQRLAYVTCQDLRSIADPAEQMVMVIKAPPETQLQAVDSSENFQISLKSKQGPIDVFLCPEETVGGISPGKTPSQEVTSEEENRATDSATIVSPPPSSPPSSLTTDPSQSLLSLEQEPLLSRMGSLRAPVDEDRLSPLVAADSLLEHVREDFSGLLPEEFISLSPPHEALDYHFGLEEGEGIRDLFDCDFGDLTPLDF
# UniProt O15047: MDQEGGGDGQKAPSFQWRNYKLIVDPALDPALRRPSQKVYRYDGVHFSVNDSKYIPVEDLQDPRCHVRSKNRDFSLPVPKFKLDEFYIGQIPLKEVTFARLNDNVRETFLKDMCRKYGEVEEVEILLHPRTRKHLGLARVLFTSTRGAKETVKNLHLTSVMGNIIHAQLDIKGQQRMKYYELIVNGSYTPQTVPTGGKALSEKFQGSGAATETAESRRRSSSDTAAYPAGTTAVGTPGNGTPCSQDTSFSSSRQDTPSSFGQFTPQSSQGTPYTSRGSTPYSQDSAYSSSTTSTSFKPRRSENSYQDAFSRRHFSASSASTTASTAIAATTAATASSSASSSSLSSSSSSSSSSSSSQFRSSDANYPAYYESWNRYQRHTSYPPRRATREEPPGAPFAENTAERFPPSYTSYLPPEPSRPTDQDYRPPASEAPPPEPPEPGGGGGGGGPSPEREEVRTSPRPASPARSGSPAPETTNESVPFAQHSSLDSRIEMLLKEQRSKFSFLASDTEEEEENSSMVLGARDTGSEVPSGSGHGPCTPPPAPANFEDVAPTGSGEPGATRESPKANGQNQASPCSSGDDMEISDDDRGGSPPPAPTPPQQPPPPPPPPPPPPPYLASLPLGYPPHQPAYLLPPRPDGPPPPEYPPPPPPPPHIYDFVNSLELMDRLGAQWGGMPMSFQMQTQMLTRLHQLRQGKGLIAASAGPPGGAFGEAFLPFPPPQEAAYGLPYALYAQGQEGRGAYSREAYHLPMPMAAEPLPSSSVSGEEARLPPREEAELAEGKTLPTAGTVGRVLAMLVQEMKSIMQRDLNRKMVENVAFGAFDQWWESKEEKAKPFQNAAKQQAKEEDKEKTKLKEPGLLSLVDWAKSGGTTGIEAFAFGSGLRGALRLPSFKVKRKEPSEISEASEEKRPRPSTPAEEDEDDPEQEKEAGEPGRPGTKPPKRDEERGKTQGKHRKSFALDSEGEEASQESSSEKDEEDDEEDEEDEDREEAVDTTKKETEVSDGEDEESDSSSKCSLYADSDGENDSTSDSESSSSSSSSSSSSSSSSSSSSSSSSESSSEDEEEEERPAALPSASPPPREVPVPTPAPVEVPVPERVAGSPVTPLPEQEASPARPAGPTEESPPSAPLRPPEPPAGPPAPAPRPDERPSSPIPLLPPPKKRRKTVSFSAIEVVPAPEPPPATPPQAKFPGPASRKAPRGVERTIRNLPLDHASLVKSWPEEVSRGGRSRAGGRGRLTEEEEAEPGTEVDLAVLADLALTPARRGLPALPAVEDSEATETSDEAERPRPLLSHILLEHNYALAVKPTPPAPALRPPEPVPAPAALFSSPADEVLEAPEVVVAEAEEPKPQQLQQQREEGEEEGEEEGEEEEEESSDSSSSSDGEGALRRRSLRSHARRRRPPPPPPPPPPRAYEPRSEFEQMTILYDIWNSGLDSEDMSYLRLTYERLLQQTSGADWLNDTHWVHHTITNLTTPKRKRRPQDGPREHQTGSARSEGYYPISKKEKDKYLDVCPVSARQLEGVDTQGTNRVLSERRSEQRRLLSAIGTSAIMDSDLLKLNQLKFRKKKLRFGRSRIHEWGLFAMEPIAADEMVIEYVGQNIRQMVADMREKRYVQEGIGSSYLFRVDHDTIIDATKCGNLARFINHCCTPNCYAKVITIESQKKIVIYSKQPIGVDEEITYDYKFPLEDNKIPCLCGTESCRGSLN
# No constants are given. Whether binding was seen depends on the method and setting. Binding seen in cells or lysates may run through a third protein. Some entries that bind do so weakly or less than the wild type.
# Assays:
# [1] = target: endogenous E2F1 (human (endogenous in LNCaP)) (UniProt Q01094); experiment: co-IP; endogenous proteins in LNCaP cells; immunoprecipitation with E2F1 antibody, immunoblot for SETD1A
# [2] = target: HA (hemagglutinin)-tagged E2F1 (UniProt Q01094); experiment: co-IP; HA-E2F1 and flag-SETD1A co-expressed in LNCaP cells, 72 h; RIPA extract; immunoprecipitation with anti-HA antibody, immunoblot for SETD1A
# [3] = target: HA (hemagglutinin)-tagged E2F1 (UniProt Q01094); experiment: co-IP; HA-E2F1 and flag-SETD1A co-expressed in C4-2B cells; RIPA extract; co-immunoprecipitated SETD1A detected with anti-flag antibody
binding [1],Substance,binding [2],binding [3]
binds,endogenous SETD1A (from UniProt O15047 1-1707),–,–
–,flag-tagged SETD1A (from UniProt O15047 1-1707),binds,binds
